Measurements taken from patent publication US20220275095A1.
Results are given in words; binding and its absence hold for the method and conditions named. Some results given as binding are weak or reduced against the parent protein; the word gives no strength.

How the values were obtained:
[1] = target: Fzd2 hinge protein (Fzd2 protein with the hinge region) (Homo sapiens (Human)) (UniProt Q14332); experiment: BLI (Octet Red 96), biotinylated Fzd2 hinge protein on streptavidin biosensor
[2] = target: T1, hFzd8 (human) (UniProt Q9H461); experiment: phage ELISA
T1 sequence (looked up): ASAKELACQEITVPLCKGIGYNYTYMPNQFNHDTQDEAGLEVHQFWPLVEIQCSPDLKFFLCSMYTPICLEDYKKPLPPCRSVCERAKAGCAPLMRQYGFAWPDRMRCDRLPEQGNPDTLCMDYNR

B1: 031S-B02 Fab (Fab, V domains shown)
VH: EVQLLESGGGLVQPGGSLRLSCAASGFTFSSYWMSWVRQAPGKGLEWVSAIGGSGANAYYADSVKGRFTISRDNSKNTLYLQMNSLRAEDTAVYYCVRDTNWAFDLWGQGTMVTVSS
VL: EIVMTQSPATLSVSPGERATLSCRASQSVSGSYLAWYQQKPGQAPRLLIYGASTRATGIPARFSGSGSGTEFTLTISSLQSEDFAVYYCQQYGSSPLTFGQGTKVEIK
binding [1]: binds

B2: 027S-E5 (Fab, V domains shown)
VH: QVQLEQSGAEVKKPGASVKVSCKASGGTFSSYAISWVRQAPGQGLEWMGMINPSGGSTTYAQKFQGRVTMTRDTSTSTVYMELSSLRSEDTAVYYCARQAGLHCSSTSCYLGNWFDPWGQGTLVTVSS
VL: DIQMTQSPSSLSASVGDRVTITCRASQGITKSLAWYQQKPGKAPKLLIYAASNLATGVPSRFSGSGSGTDFTLTISSLQPEDFATYYCQQYNTFPITFGQGTRLEIKR
binding [2]: binds
